Laboratory results from publication doi:10.1101/399980.
No constants are given. Whether binding was seen depends on the method and setting. Binding seen in cells or lysates may run through a third protein. Some entries that bind do so weakly or less than the wild type.

By UniProt entry, the sequences of proteins in these tests, tags left out.
UniProt P46937: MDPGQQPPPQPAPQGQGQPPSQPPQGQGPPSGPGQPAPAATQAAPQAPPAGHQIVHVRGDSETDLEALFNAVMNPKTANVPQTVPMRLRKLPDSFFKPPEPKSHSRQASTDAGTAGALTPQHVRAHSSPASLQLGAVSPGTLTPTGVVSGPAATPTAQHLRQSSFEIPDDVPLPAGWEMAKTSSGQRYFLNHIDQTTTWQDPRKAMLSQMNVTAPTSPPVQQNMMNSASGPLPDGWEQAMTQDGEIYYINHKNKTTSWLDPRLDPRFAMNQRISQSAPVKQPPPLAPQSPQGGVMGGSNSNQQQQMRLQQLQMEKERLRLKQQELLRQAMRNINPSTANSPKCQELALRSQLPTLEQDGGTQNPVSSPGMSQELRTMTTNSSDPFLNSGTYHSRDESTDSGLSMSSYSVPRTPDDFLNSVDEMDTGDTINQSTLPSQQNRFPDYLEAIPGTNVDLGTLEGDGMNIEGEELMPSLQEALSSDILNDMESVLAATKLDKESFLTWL

Columns and labels:
[1] = biological target: Yes-associated protein (YAP) (human (endogenous in NTERT)) (UniProt P46937); assay: co-IP
[2] = biological target: YAP phosphorylated at S127 (pYAP-S127) (human (endogenous in NTERT)) (UniProt P46937); assay: co-IP

B1: Desmoglein-3 (Dsg3) (protein, UniProt P32926 50-999)
chain: EWVKFAKPCREGEDNSKRNPIAKITSDYQATQKITYRISGVGIDQPPFGIFVVDKNTGDINITAIVDREETPSFLITCRALNAQGLDVEKPLILTVKILDINDNPPVFSQQIFMGEIEENSASNSLVMILNATDADEPNHLNSKIAFKIVSQEPAGTPMFLLSRNTGEVRTLTNSLDREQASSYRLVVSGADKDGEGLSTQCECNIKVKDVNDNFPMFRDSQYSARIEENILSSELLRFQVTDLDEEYTDNWLAVYFFTSGNEGNWFEIQTDPRTNEGILKVVKALDYEQLQSVKLSIAVKNKAEFHQSVISRYRVQSTPVTIQVINVREGIAFRPASKTFTVQKGISSKKLVDYILGTYQAIDEDTNKAASNVKYVMGRNDGGYLMIDSKTAEIKFVKNMNRDSTFIVNKTITAEVLAIDEYTGKTSTGTVYVRVPDFNDNCPTAVLEKDAVCSSSPSVVVSARTLNNRYTGPYTFALEDQPVKLPAVWSITTLNATSALLRAQEQIPPGVYHISLVLTDSQNNRCEMPRSLTLEVCQCDNRGICGTSYPTTSPGTRYGRPHSGRLGPAAIGLLLLGLLLLLLAPLLLLTCDCGAGSTGGVTGGFIPVPDGSEGTIHQWGIEGAHPEDKEITNICVPPVTANGADFMESSEVCTNTYARGTAVEGTSGMEMTTKLGAATESGGAAGFATGTVSGAASGFGAATGVGICSSGQSGTMRTRHSTGGTNKDYADGAISMNFLDSYFSQKAFACAEEDDGQEANDCLLIYDNEGADATGSPVGSVGCCSFIADDLDDSFLDSLGPKFKKLAEISLGVDGEGKEVQPPSKDSGYGIESCGHPIEVQQTGFVKCQTLSGSQGASALSTSGSVQPAVSIPDPLQHGNYLVTETYSASGSLVQPSTAGFDPLLTQNVIVTERVICPISSVPGNLAGPTQLRGSHTMLCTEDPCSRLI
- binding [1]: binds
- binding [2]: binds
